Data as given in the supplement of paper PMC10849652.
The other results are listed elsewhere or left out.

Chains of the proteins cited; added tags and fusions are not shown. Lines headed by an entry give the natural chain unless they say otherwise; changes in a name come on top.
UniProt Q02078: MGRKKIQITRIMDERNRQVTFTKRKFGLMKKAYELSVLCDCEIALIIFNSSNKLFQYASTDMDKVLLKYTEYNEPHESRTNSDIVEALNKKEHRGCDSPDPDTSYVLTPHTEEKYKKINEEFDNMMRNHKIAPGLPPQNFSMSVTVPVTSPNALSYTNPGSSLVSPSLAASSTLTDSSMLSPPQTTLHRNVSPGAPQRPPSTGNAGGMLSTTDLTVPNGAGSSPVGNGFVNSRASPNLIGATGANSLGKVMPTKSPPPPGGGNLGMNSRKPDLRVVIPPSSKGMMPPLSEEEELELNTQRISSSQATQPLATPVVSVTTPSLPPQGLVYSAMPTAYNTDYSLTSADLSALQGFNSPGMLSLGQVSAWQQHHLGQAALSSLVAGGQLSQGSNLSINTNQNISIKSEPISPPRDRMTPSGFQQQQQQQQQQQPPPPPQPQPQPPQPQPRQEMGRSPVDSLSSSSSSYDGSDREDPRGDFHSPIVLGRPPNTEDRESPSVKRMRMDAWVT
UniProt Q9NX70: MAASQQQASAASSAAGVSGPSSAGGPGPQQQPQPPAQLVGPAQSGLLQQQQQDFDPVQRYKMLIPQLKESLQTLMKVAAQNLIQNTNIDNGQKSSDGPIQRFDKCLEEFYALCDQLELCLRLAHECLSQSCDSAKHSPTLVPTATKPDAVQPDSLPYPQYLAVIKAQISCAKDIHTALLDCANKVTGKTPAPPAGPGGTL
UniProt P21741: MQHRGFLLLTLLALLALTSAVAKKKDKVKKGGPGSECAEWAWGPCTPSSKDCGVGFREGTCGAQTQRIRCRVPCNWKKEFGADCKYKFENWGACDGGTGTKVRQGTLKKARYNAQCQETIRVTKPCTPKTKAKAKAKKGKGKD
UniProt Q9NWA0: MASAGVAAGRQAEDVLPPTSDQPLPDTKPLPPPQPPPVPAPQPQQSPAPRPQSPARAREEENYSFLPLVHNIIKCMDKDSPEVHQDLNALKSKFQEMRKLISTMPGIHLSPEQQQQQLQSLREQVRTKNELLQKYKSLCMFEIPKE
UniProt Q9NR56: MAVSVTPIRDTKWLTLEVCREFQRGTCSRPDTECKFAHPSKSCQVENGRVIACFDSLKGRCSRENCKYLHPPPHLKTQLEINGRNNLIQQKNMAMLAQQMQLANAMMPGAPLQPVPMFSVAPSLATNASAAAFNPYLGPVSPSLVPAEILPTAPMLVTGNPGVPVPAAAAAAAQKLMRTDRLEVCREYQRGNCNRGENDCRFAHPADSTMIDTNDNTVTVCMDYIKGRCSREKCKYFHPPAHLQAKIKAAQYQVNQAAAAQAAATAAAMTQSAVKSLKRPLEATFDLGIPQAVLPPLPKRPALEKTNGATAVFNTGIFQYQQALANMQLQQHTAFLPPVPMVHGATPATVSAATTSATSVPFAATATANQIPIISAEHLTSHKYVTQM
UniProt Q8NBP5: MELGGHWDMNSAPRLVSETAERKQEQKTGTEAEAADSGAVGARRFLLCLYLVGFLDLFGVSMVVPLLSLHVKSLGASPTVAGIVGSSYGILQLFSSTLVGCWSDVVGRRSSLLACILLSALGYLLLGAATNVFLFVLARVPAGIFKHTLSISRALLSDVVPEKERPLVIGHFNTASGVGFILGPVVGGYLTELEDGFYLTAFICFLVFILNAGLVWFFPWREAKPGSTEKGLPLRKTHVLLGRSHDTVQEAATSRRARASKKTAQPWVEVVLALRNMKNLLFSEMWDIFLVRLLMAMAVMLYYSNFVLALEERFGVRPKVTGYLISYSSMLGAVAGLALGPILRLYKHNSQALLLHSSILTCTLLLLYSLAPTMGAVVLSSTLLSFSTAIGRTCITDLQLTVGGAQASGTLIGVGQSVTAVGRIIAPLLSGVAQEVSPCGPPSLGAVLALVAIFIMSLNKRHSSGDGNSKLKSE
UniProt Q9Y6X3: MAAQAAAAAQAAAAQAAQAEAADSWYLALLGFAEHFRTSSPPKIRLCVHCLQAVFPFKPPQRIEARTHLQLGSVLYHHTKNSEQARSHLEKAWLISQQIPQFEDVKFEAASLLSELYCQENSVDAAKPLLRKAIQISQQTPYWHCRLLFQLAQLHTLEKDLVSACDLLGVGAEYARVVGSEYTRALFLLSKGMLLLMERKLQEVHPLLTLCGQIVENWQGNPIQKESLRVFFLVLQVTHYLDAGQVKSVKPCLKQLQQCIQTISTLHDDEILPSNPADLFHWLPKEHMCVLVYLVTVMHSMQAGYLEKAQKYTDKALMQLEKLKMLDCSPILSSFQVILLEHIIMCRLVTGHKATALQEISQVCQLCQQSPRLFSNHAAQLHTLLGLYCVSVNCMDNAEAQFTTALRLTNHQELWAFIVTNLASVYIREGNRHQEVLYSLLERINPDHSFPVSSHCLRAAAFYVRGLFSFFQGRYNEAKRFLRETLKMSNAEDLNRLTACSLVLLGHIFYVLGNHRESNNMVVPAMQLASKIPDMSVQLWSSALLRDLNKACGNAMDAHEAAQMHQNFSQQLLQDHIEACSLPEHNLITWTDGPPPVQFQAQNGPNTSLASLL
UniProt Q6NUT3: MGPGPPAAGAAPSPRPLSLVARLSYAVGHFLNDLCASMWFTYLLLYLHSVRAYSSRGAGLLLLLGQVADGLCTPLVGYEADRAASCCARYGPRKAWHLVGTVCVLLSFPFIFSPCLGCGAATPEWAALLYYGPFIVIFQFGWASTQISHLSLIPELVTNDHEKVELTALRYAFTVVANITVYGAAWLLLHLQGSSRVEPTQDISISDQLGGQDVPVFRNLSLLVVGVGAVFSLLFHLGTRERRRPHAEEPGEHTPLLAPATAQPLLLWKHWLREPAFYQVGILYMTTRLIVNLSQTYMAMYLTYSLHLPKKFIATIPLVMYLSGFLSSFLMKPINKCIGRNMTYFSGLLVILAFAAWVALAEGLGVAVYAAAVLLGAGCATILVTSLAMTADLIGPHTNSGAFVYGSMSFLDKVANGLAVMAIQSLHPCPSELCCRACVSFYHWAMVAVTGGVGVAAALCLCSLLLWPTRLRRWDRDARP
UniProt O95402: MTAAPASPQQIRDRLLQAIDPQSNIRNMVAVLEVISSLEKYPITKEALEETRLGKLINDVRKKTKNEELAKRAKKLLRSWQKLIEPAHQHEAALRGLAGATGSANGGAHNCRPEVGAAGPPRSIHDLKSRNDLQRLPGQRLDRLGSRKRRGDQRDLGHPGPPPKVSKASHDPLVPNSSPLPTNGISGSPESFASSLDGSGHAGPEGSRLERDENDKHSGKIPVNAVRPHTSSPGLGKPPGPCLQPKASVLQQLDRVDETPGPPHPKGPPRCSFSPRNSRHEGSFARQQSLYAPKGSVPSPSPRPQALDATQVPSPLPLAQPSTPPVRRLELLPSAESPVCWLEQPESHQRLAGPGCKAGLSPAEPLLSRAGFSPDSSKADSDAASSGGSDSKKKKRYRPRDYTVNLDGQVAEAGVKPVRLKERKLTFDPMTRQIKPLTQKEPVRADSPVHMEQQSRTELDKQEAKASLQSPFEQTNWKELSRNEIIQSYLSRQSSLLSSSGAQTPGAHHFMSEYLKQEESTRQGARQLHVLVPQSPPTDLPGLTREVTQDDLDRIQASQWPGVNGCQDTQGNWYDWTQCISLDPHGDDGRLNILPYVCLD
UniProt O43462: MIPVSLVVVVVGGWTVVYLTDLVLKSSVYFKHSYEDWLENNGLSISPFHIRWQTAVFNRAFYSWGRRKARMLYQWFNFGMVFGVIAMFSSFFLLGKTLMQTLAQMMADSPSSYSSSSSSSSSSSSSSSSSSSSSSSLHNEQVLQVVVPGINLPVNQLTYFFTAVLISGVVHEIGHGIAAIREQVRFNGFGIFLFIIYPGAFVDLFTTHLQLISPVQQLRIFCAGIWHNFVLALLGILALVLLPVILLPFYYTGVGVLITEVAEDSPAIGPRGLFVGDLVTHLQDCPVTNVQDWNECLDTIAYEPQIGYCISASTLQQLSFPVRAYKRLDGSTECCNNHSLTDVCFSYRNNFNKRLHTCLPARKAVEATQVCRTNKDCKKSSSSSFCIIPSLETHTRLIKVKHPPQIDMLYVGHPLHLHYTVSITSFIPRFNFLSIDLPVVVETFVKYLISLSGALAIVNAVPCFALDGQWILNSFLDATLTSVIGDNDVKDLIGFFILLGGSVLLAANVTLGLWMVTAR
UniProt Q9GZU1, whole entry, looked up: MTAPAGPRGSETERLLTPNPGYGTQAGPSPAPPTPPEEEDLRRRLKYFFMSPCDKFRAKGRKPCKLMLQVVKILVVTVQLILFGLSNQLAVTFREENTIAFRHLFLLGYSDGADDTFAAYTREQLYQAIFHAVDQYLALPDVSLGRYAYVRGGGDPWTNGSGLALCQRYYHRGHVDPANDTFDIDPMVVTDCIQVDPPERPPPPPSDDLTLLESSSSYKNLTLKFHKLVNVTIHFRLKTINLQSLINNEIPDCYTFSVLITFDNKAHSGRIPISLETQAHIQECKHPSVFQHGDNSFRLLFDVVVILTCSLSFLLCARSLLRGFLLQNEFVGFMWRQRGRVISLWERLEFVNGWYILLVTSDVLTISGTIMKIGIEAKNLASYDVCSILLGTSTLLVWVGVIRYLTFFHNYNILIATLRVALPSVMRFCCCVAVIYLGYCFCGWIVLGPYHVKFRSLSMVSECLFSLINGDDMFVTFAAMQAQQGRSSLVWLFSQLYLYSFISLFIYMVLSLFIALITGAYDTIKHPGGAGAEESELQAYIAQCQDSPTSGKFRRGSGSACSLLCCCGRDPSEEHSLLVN
UniProt Q7L590: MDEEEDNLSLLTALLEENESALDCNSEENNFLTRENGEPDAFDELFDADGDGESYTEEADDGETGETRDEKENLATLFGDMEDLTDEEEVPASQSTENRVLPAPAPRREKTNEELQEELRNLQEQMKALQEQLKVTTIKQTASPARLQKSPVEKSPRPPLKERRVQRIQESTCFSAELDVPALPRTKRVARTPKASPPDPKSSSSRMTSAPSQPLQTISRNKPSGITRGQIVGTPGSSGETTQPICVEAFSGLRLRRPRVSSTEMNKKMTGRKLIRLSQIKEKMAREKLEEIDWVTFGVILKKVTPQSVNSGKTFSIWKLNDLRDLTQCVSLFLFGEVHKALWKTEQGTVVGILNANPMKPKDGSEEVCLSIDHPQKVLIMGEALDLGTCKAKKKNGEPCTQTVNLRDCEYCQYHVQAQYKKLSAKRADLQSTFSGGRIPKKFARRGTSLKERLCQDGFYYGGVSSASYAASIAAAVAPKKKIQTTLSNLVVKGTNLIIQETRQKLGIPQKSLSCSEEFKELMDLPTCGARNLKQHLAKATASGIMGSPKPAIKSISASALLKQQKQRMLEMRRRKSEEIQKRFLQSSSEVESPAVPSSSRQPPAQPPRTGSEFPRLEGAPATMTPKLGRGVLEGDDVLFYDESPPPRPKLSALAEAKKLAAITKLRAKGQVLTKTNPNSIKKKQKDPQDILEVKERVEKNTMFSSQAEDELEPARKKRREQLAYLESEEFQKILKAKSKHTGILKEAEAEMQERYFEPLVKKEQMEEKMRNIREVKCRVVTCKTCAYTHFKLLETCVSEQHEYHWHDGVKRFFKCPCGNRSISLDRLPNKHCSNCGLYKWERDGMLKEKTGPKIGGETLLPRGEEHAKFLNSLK
UniProt O60291: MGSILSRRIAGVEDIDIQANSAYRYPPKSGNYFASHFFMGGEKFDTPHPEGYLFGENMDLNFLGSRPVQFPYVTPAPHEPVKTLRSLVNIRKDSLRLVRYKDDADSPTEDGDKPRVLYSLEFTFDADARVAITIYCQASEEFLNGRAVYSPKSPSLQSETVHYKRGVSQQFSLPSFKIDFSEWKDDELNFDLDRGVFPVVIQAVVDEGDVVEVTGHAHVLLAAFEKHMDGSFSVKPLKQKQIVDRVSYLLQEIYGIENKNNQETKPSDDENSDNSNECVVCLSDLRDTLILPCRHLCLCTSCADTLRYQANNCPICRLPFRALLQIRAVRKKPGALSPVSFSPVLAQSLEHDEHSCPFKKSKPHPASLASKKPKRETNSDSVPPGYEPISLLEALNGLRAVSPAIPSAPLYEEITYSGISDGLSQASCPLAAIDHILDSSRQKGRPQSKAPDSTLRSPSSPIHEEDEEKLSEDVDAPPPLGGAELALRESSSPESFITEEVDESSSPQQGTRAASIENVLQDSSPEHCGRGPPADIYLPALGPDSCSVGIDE
UniProt Q06413, whole entry, looked up: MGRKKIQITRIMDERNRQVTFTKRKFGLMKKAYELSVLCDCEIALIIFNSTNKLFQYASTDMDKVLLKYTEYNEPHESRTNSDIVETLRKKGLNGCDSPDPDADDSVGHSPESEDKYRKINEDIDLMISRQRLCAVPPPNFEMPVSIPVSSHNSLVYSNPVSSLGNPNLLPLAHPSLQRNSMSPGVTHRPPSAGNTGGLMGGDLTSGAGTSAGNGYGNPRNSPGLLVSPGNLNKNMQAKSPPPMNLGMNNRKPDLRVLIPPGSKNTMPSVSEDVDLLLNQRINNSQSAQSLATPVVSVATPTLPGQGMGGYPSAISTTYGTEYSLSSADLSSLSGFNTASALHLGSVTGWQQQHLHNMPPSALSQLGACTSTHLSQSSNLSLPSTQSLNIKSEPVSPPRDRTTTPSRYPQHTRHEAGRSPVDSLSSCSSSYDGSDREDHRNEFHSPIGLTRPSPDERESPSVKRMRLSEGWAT

What was measured:
Assay in all cases: log2 fold change, soluble protein after heating vs DMSO (PISA); higher = thermal stabilisation; K562 cells, 10 uM, 30 min; active = over 0.2 and 3.5 SD of the protein, either way, in both replicates (recomputed)
erlotinib = compound: C#Cc1cccc(Nc2ncnc3cc(OCCOC)c(OCCOC)cc23)c1 [erlotinib]
Summary of the method: (§1)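 Values are thermal stability changes relative to control samples and are taken from duplicates. They are stated as log2 fold changes. Before quantification by TMTpro 16plex LC-MS/MS with equalised channel sums, K562 cells at 2×10^6 cells/mL were treated with 10 μM compound for 30 min, heated in aliquots for 3 min across 48°C-58°C, pooled, extracted in PBS with 0.5% NP-40 at 4°C, and centrifuged at 21,000xg for 90 min to give the soluble supernatant.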

[1] = compound: C1=CC(=C(C=C1Cl)C2=NC3=NC=CN=C3C(=N2)NC4=CC=NC=C4)F
Summary of the method: as §1

[2] = compound: C1=CC(=CC=C1C2=NC3=C(N2)C=C(C=C3)C(=O)N)OC4=CC=C(C=C4)Cl
Summary of the method: as §1

[3] = compound: C1CCN(C1)C(=O)NC2=CC=CC(=C2)NC3=NC=C(C(=N3)NCCC4=CN=CN4)Br
Summary of the method: as §1

[4] = compound: C1CN(CCC1(CC2=CC=C(C=C2)Cl)N)C3=NC=NC4=C3C=CN4
Summary of the method: as §1

[5] = compound: C/C(=N\NC(=O)C1=CC(=CC=C1)S(=O)(=O)N2CCOCC2)/C3=C(C=CC(=C3)Cl)O
Summary of the method: as §1

[6] = compound: C1=CC2=C(C=CC(=C2)/C=C\3/C(=O)NC(=NCC4=CC=CS4)S3)N=C1
Summary of the method: as §1

[7] = compound: C1=CC=C2C(=C1)C3=NNC4=CC=CC(=C43)C2=O
Summary of the method: as §1

[8] = compound: C1=CC2=NC=CN=C2C=C1/C=C/3\C(=O)NC(=O)S3
Summary of the method: as §1

[9] = compound: C1=CC=C(C=C1)C2=NC(=C(N2)C3=CC=NC=C3)C4=CC(=C(C=C4)Cl)O
Summary of the method: as §1

MEF2A (UniProt Q02078)
log2 fold change (erlotinib): inactive: 0.03
log2 fold change [1]: inactive: -0.136
log2 fold change [2]: inactive: 0.04
log2 fold change [3]: inactive: -0.004
log2 fold change [4]: inactive: 0.071

MED29 (UniProt Q9NX70)
log2 fold change (erlotinib): inactive: -0.016
log2 fold change [5]: inactive: 0.008
log2 fold change [2]: inactive: 0.062
log2 fold change [6]: inactive: -0.089
log2 fold change [7]: inactive: -0.015

MDK (UniProt P21741)
log2 fold change (erlotinib): inactive: -0.58
log2 fold change [5]: inactive: -0.044
log2 fold change [2]: inactive: 0.029
log2 fold change [6]: inactive: -0.079
log2 fold change [8]: inactive: 0.081
log2 fold change [7]: inactive: -0.302
log2 fold change [3]: inactive: 0.038
log2 fold change [4]: inactive: -0.004

MED6 (UniProt O75586)
log2 fold change (erlotinib): inactive: 0.054
log2 fold change [1]: inactive: -0.341
log2 fold change [2]: inactive: 0.099
log2 fold change [8]: inactive: 0.101

MCOLN3 (UniProt Q8TDD5)
log2 fold change (erlotinib): inactive: 0.244
log2 fold change [2]: inactive: -0.016
log2 fold change [8]: inactive: 0.112
log2 fold change [9]: inactive: -0.049
log2 fold change [3]: inactive: 0.053
log2 fold change [4]: inactive: 0.107

MEGF10 (UniProt Q96KG7)
log2 fold change [3]: inactive: 0.096
log2 fold change [4]: inactive: 0.068

MEGF8 (UniProt Q7Z7M0)
log2 fold change [5]: inactive: 0.024
log2 fold change [6]: inactive: 0.171
log2 fold change [7]: inactive: 0.001
log2 fold change [3]: inactive: 0.108
log2 fold change [4]: inactive: 0

MFSD4B (UniProt Q5TF39)
log2 fold change [5]: inactive: -0.033
log2 fold change [1]: inactive: 0.089
log2 fold change [6]: inactive: -0.04
log2 fold change [8]: inactive: 0.078
log2 fold change [9]: inactive: 0.186
log2 fold change [7]: inactive: 0.032
log2 fold change [3]: inactive: -0.06
log2 fold change [4]: inactive: 0.095

MED13L (UniProt Q71F56)
log2 fold change (erlotinib): inactive: -0.071
log2 fold change [1]: inactive: -0.03
log2 fold change [2]: inactive: 0.018

METTL2B (UniProt Q6P1Q9)
log2 fold change [5]: inactive: 0.133
log2 fold change [1]: inactive: -0.113
log2 fold change [6]: inactive: 0.022
log2 fold change [9]: inactive: 0.073
log2 fold change [7]: inactive: -0.065

MED9 (UniProt Q9NWA0)
log2 fold change [9]: inactive: 0.145

MED13 (UniProt Q9UHV7)
log2 fold change [5]: inactive: 0.03
log2 fold change [1]: inactive: -0.015
log2 fold change [6]: inactive: 0.003
log2 fold change [8]: inactive: -0.045
log2 fold change [9]: inactive: 0.009
log2 fold change [7]: inactive: -0.032
log2 fold change [3]: inactive: -0.109
log2 fold change [4]: inactive: 0.037

MEX3C (UniProt Q5U5Q3)
log2 fold change [9]: inactive: -0.006

MEGF9 (UniProt Q9H1U4)
log2 fold change (erlotinib): inactive: -0.104
log2 fold change [2]: inactive: 0.045
log2 fold change [8]: inactive: -0.219
log2 fold change [3]: inactive: -0.159
log2 fold change [4]: inactive: -0.091

MBNL1 isoform 5 (UniProt Q9NR56)
log2 fold change [1]: inactive: 0.033
log2 fold change [8]: inactive: -0.103
log2 fold change [9]: inactive: -0.001
log2 fold change [3]: inactive: -0.181
log2 fold change [4]: inactive: 0.191

MED31 (UniProt Q9Y3C7)
log2 fold change [9]: inactive: -0.02

MFSD9 (UniProt Q8NBP5)
log2 fold change (erlotinib): inactive: -0.171
log2 fold change [2]: inactive: 0.024

METTL15 (UniProt A6NJ78)
log2 fold change [5]: inactive: 0.305
log2 fold change [1]: inactive: 0.124
log2 fold change [6]: inactive: 0.178
log2 fold change [8]: inactive: 0.012
log2 fold change [7]: inactive: -0.048
log2 fold change [3]: inactive: -0.194
log2 fold change [4]: inactive: -0.091

MAU2 (UniProt Q9Y6X3)
log2 fold change (erlotinib): inactive: 0.113
log2 fold change [2]: inactive: -0.011
log2 fold change [9]: inactive: 0.048
log2 fold change [3]: inactive: -0.085
log2 fold change [4]: inactive: 0.039

MFSD12 isoform 3 (UniProt Q6NUT3)
log2 fold change (erlotinib): inactive: 0.062
log2 fold change [5]: inactive: -0.062
log2 fold change [2]: inactive: 0.077
log2 fold change [6]: inactive: -0.035
log2 fold change [7]: inactive: 0.024
log2 fold change [3]: inactive: -0.088
log2 fold change [4]: inactive: -0.099

METTL9 (UniProt Q9H1A3)
log2 fold change (erlotinib): inactive: -0.183
log2 fold change [5]: inactive: -0.013
log2 fold change [2]: inactive: 0.008
log2 fold change [6]: inactive: -0.105
log2 fold change [8]: inactive: 0.045
log2 fold change [9]: inactive: 0.033
log2 fold change [7]: inactive: -0.05
log2 fold change [3]: inactive: -0.02
log2 fold change [4]: inactive: -0.083

MFAP3 (UniProt P55082)
log2 fold change [5]: inactive: 0.202
log2 fold change [1]: inactive: -0.021
log2 fold change [6]: inactive: 0.029
log2 fold change [8]: inactive: -0.106
log2 fold change [7]: inactive: -0.142
log2 fold change [3]: inactive: -0.088
log2 fold change [4]: inactive: 0.064

MAST2 (UniProt Q6P0Q8)
log2 fold change [9]: inactive: -0.074

MED26 (UniProt O95402)
log2 fold change [5]: inactive: 0.149
log2 fold change [6]: inactive: -0.279
log2 fold change [9]: inactive: -0.02
log2 fold change [7]: inactive: 0.121

METTL26 (UniProt Q96S19)
log2 fold change (erlotinib): inactive: 0.181
log2 fold change [2]: inactive: -0.097
log2 fold change [8]: inactive: -0.273

MFSD11 (UniProt O43934)
log2 fold change [5]: inactive: 0.001
log2 fold change [1]: inactive: 0.007
log2 fold change [6]: inactive: 0.047
log2 fold change [8]: inactive: 0.043
log2 fold change [7]: inactive: -0.067
log2 fold change [3]: inactive: 0.06
log2 fold change [4]: inactive: 0.219

MBTPS2 (UniProt O43462)
log2 fold change (erlotinib): inactive: 0.057
log2 fold change [1]: inactive: -0.205
log2 fold change [2]: inactive: -0.03
log2 fold change [9]: inactive: -0.097
log2 fold change [3]: inactive: -0.053
log2 fold change [4]: inactive: 0.043

MCOLN1 (UniProt Q9GZU1)
log2 fold change (erlotinib): inactive: -0.011
log2 fold change [1]: inactive: 0.225
log2 fold change [2]: inactive: 0.009
log2 fold change [8]: inactive: -0.014
log2 fold change [9]: inactive: 0.076

MED11 (UniProt Q9P086)
log2 fold change (erlotinib): inactive: -0.086
log2 fold change [2]: inactive: -0.029
log2 fold change [3]: inactive: 0
log2 fold change [4]: inactive: -0.192

MCM10 (UniProt Q7L590)
log2 fold change (erlotinib): inactive: -0.066
log2 fold change [1]: inactive: 0.205
log2 fold change [2]: inactive: 0.039
log2 fold change [8]: inactive: -0.054
log2 fold change [3]: inactive: -0.153
log2 fold change [4]: inactive: 0.125

METTL17 isoform 3 (UniProt Q9H7H0)
log2 fold change [5]: inactive: -0.052
log2 fold change [6]: inactive: 0.021
log2 fold change [9]: inactive: -0.138
log2 fold change [7]: inactive: 0.066

MGRN1 isoform 2 (UniProt O60291)
log2 fold change (erlotinib): inactive: 0.016
log2 fold change [5]: inactive: 0.079
log2 fold change [2]: inactive: 0
log2 fold change [6]: active: -0.544
log2 fold change [8]: inactive: 0.004
log2 fold change [9]: inactive: -0.095
log2 fold change [7]: inactive: 0.073
log2 fold change [3]: inactive: 0.008
log2 fold change [4]: inactive: 0.227

MEF2C isoform 2 (UniProt Q06413)
log2 fold change [1]: inactive: 0.085
log2 fold change [3]: inactive: -0.07
log2 fold change [4]: inactive: 0.096
